According to patent US20120269817A1:

B1: TP-2C7 Fab (Fab, V domains shown)
VH: QVQLQQSGPGLVKPSQTLSLTCAISGDSVSSNSAAWGWIRQSPGRGLEWLGIIYYRSKWYNHYAVSVKSRITINPDTSKNQFSLQLNSVTPEDTAVYYCARSNWSGYFDYWGQGTLVTVSS
VL: DIQMTQSPSSLSASVGDRVTITCRASQDIRNNLAWYQQKPGKAPKLLIYAASSLQSGVPSRFSGSGSGTDFTLTISSLQPEDFAVYYCQQRNGFPLTFGQGTKVEIKR
B2: TP-2E3 Fab (Fab, V domains shown)
VH: QVQLQQSGPGLVKPSQTLSLTCAISGDSVSSNSAAWGWIRQSPGRGLEWLGMIYYRSKWYNDYAVSVKSRITINPDTSKNQFSLQLNSVTPEDTAVYYCARVNQYTSSDYWGQGTLVTVSS
VL: DIALTQPASVSGSPGQSITISCTGTSSDIGGYNYVSWYQQHPGKAPKLMIYGVNYRPSGVSNRFSGSKSGNTASLTISGLQAEDEADYYCSSADKFTMSIVFGGGTKLTVLG
B3: TP-2E5 Fab (Fab, V domains shown)
VH: QVQLQQSGPGLVKPSQTLSLTCAISGDSVSSNSAAWSWIRQSPGRGLEWLGMIFYRSKWNNDYAVSVKSRITINPDTSKNQFSLQLNSVTPEDTAVYYCARVNANGYYAYVDLWGQGTLVTVSS
VL: DIQMTQSPSSLSASVGDRVTITCRASQPIYNSLSWYQQKPGKAPKLLIYGVSNLQSGVPSRFSGSGSGTDFTLTISSLQPEDFAVYYCLQVDNLPITFGQGTKVEIKR
B4: TP-2G2 Fab (Fab, V domains shown)
VH: QVQLVESGGGLVQPGGSLRLSCAASGFTFSSYAMNWVRQAPGKGLEWVSAILSDGSSTSYADSVKGRFTISRDNSKNTLYLQMNSLRAEDTAVYYCARYPDWGWYTDVWGQGTLVTVSS
VL: DIELTQPPSVSVAPGQTARISCSGDNIRKFYVHWYQQKPGQAPVLVIYGTNKRPSGIPERFSGSNSGNTATLTISGTQAEDEADYYCQSYDSKFNTVFGGGTKLTVLG
B5: TP-2G4 Fab (Fab, V domains shown)
VH: QVQLVESGGGLVQPGGSLRLSCAASGFTFSSYAMTWVRQAPGKGLEWVSNISYSGSNTYYADSVKGRFTISRDNSKNTLYLQMNSLRAEDTAVYYCARVGYYYGFDYWGQGTLVTVSS
VL: DIELTQPPSVSVAPGQTARISCSGDALRKHYVYWYQQKPGQAPVLVIYGDNNRPSGIPERFSGSNSGNTATLTISGTQAEDEADYYCQSYDKPYPILVFGGGTKLTVLG
B6: TP-2G6 Fab (Fab, V domains shown)
VH: QVQLQQSGPGLVKPSQTLSLTCAISGDSVSSSSAAWSWIRQSPGRGLEWLGIIYYRSKWYNDYAVSVKSRITINPDTSKNQFSLQLNSVTPEDTAVYYCARHSMVGFDVWGQGTLVTVSS
VL: DIVLTQSPATLSLSPGERATLSCRASQYVTSSYLAWYQQKPGQAPRLLIYGSSRATGVPARFSGSGSGTDFTLTISSLEPEDFATYYCQQYSSSPITFGQGTKVEIKR
B7: TP-2G7 Fab (Fab, V domains shown)
VH: QVQLVESGGGLVQPGGSLRLSCAASGFTFNSYAMSWVRQAPGKGLEWVSNISSNSSNTYYADSVKGRFTISRDNSKNTLYLQMNSLRAEDTAVYYCARKGGGEHGFFPSDIWGQGTLVTVSS
VL: DIELTQPPSVSVAPGQTARISCSGDNLGTYYVHWYQQKPGQAPVLVIYGDNNRPSGIPERFSGSNSGNTATLTISGTQAEDEADYYCQTYDSNNESIVFGGGTKLTVLG
B8: TP-2G9 Fab (Fab, V domains shown)
VH: QVQLVESGGGLVQPGGSLRLSCAASGFTFNSYAMTWVRQAPGKGLEWVSAIKSDGSNTYYADSVKGRFTISRDNSKNTLYLQMNSLRAEDTAVYYCARNDSGWFDVWGQGTLVTVSS
VL: DIALTQPASVSGSPGQSITISCTGTSSDLGGFNTVSWYQQHPGKAPKLMIYSVSSRPSGVSNRFSGSKSGNTASLTISGLQAEDEADYYCQSYDLNNLVFGGGTKLTVLG
B9: TP-3A2 Fab (Fab, V domains shown)
VH: QVQLVESGGGLVQPGGSLRLSCAASGFTFSNYYLSWVRQAPGKGLEWVSGISYNGSSTNYADSVKGRFTISRDNSKNTLYLQMNSLRAEDTAVYYCARMWRYSLGADSWGQGTLVTVSS
VL: DIELTQPPSVSVAPGQTARISCSGDNIGSRYAYWYQQKPGQAPVVVIYDDSDRPSGIPERFSGSNSGNTATLTISGTQAEDEADYYCAAYTFYARTVFGGGTKLTVLG
B10: TP-3A3 Fab (Fab, V domains shown)
VH: QVQLVESGGGLVQPGGSLRLSCAASGFTFNNNAISWVRQAPGKGLEWVSAINSSSSSTSYADSVKGRFTISRDNSKNTLYLQMNSLRAEDTAVYYCARGHHRGHSWASFIDYWGQGTLVTVSS
VL: DIELTQPPSVSVAPGQTARISCSGDNIGSKYVHWYQQKPGQAPVVVIYEDSDRPSGIPERFSGSNSGNTATLTISGTQAEDEADYYCQSWDKSEGYVFGGGTKLTVLG
B11: TP-3A4 Fab (Fab, V domains shown)
VH: QVQLVESGGGLVQPGGSLRLSCAASGFTFSSYWMHWVRQAPGKGLEWVSSISYDSSNTYYADSVKGRFTISRDNSKNTLYLQMNSLRAEDTAVYYCARYGGMDYWGQGTLVTVSS
VL: DIELTQPPSVSVAPGQTARISCSGDNLRDKYASWYQQKPGQAPVLVIYSKSERPSGIPERFSGSNSGNTATLTISGTQAEDEADYYCSSYTLNPNLNYVFGGGTKLTVLG
B12: TP-3B3 Fab (Fab, V domains shown)
VH: QVQLVESGGGLVQPGGSLRLSCAASGFTFSSYGMHWVRQAPGKGLEWVSNISYMGSNTNYADSVKGRFTISRDNSKNTLYLQMNSLRAEDTAVYYCARGLFPGYFDYWGQGTLVTVSS
VL: DIELTQPASVSVAPGQTARISCSGDNLRSKYAHWYQQKPGQAPVLVIYGDNNRPSGIPERFSGSNSGNTATLTISGTQAEDEADYYCSAYAMGSSPVFGGGTKLTVLG
B13: TP-3B4 Fab (Fab, V domains shown)
VH: QVQLQQSGPGLVKPSQTLSLTCAISGDSVSSNGAAWGWIRQSPGRGLEWLGHIYYRSKWYNSYAVSVKSRITINPDTSKNQFSLQLNSVTPEDTAVYYCARWGGIHDGDIYFDYWGQGTLVTVSS
VL: DIQMTQSPSSLSASVGDRVTITCRASQNISNYLNWYQQKPGKAPKLLIYGTSSLQSGVPSRFSGSGSGTDFTLTISSLQPEDFAVYYCQQYGNNPTTFGQGTKVEIKR
B14: TP-3C1 Fab (Fab, V domains shown)
VH: QVQLVESGGGLVQPGGSLRLSCAASGFTFSSYSMHWVRQAPGKGLEWVSGISYSSSFTYYADSVKGRFTISRDNSKNTLYLQMNSLRAEDTAVYYCARALGGGVDYWGQGTLVTVSS
VL: DIALTQPASVSGSPGQSITISCTGTSSDLGGFNTVSWYQQHPGKAPKLMIYSVSSRPSGVSNRFSGSKSGNTASLTISGLQAEDEADYYCQSYDLNNLVFGGGTKLTVLG
B15: TP-3C2 Fab (Fab, V domains shown)
VH: QVQLQQSGPGLVKPSQTLSLTCAISGDSVSSSSAAWSWIRQSPGRGLEWLGMIYYRSKWYNHYAVSVKSRITINPDTSKNQFSLQLNSVTPEDTAVYYCARGGSGVMDVWGQGTLVTVSS
VL: DIQMTQSPSSLSASVGDRVTITCRASQSITNYLNWYQQKPGKAPKLLIYDVSNLQSGVPSRFSGSGSGTDFTLTISSLQPEDFAVYYCQQYSGYPLTFGQGTKVEIKR

What follows are binders tested against lysozyme (assay: ELISA).

binding, no binding:
B1
B2
B3
B4
B5
B6
B7
B8
B9
B10
B11
B12
B13
B14
B15

These are yes or no findings as the source states them, for the method shown.
